{
  "sequences": {"note": "Protein sequences, listed by entry. Tags and fused reporters are not part of them. Residues count along the entry.", "UniProt P02770, 25-608": "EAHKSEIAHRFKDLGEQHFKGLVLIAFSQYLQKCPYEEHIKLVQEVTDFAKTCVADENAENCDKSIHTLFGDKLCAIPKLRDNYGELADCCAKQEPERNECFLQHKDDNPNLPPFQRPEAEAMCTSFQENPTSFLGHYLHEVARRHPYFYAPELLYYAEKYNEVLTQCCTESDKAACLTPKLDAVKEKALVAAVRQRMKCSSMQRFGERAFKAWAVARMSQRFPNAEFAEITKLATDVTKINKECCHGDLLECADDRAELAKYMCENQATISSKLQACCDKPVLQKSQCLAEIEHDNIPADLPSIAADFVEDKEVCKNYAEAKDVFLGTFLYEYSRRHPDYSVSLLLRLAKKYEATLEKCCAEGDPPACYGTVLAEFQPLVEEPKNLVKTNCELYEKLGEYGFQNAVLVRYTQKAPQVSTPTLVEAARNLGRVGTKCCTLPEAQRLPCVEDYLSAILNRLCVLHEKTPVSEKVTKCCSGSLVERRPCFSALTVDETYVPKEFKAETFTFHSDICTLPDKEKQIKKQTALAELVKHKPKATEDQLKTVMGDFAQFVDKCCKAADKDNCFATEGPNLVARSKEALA"},
  "source": "patent US9579406B2",
  "about": "“Phospholipid ether analogs as agents for detecting and locating cancer, and methods thereof” (Cellectar, Inc., priority 2004, dated 2017)",
  "target": "T1, albumin fraction (Rattus norvegicus, UniProt P02770)",
  "T1 construct": "plasma was isolated from Walker-256 tumor-bearing rats; from tissue; host or cells: plasma of Walker-256 tumor-bearing rats",
  "experiment": "PAGE analysis of plasma radioactivity from Walker-256 tumor-bearing rats",
  "format": "in vitro ADME",
  "conditions": "plasma 7 days after administration, iodine-125 labeled",
  "note": "At least one read-out could not be matched to a standard name with certainty.",
  "data": [
    {"smiles": "C[N+](C)(C)CCOP(=O)([O-])OCCCCCCCCCCCCCCCCCCc1ccc(I)cc1", "note": "[NM-404, 18-(4-iodophenyl)-octadecylphosphocholine]", "values": [
      {"measurement": "circulating radioactivity associated with the albumin fraction", "result": 88, "unit": "%"}
    ]}
  ]
}
